Assay results reported in patent publication US9139581B2 (PORTOLA PHARMACEUTICALS, INC., priority 2008, dated 2015).

System: human platelet-rich plasma (PRP)
Assay: Inhibition of Convulxin-mediated platelet aggregation in vitro (PRP)
Format: cell-based
Conditions: Table 4, Convulxin-induced aggregation in human PRP, unit inferred
Method: The ability for candidate molecules to inhibit syk-mediated platelet functions are tested by measuring the inhibition the GPVI-specific agonist Convulxin-induced human platelet calcium-mobilization or aggregation. Calcium-mobilization is assessed in human washed platelets in a 96-well microtiter format. Aggregation is assessed in a 96-well microtiter assay (see generally the procedures in Jantzen, H. M. et al. (1999) Thromb. Hemost. 81:111-117) or standard cuvette light transmittance aggregometry using human platelet-rich plasma (PRP).
Inhibition of Convulxin-Mediated Platelet Aggregation In Vitro […]
Inhibition of Convulxin-induced aggregation is determined in 96-well flat-bottom microtiter plates using a microtiter plate shaker and plate reader similar to the procedure described by Frantantoni et al., Am. […] The plates are then agitated for 5 min on a microtiter plate shaker and the 5 minute reading is obtained in the microtitre plate reader (Softmax, Molecular Devices, Menlo Park, Calif.). Aggregation is calculated from the decrease of OD at 650 nm at t=5 minutes. […]
Inhibition of Convulxin-induced aggregation was also determined for cuvette light transmittance aggregation assays, serial dilutions (1:2) of test compounds were prepared in 30% DMSO in a 96 well V-bottom plate (final DMSO concentration in the cuvette was 0.3%). […]

NCC1CCN(c2nc(Nc3ccc(S(N)(=O)=O)cc3)ncc2F)CC1 [Example 32, 4-(4-(4-(aminomethyl)piperidin-1-yl)-5-fluoropyrimidin-2-ylamino)benzenesulfonamide]
IC50: 4.67 µM
